The chains behind the UniProt entries cited, without tags or fusion partners. Residues count along the entry.
UniProt Q91ZX7, 20-4545: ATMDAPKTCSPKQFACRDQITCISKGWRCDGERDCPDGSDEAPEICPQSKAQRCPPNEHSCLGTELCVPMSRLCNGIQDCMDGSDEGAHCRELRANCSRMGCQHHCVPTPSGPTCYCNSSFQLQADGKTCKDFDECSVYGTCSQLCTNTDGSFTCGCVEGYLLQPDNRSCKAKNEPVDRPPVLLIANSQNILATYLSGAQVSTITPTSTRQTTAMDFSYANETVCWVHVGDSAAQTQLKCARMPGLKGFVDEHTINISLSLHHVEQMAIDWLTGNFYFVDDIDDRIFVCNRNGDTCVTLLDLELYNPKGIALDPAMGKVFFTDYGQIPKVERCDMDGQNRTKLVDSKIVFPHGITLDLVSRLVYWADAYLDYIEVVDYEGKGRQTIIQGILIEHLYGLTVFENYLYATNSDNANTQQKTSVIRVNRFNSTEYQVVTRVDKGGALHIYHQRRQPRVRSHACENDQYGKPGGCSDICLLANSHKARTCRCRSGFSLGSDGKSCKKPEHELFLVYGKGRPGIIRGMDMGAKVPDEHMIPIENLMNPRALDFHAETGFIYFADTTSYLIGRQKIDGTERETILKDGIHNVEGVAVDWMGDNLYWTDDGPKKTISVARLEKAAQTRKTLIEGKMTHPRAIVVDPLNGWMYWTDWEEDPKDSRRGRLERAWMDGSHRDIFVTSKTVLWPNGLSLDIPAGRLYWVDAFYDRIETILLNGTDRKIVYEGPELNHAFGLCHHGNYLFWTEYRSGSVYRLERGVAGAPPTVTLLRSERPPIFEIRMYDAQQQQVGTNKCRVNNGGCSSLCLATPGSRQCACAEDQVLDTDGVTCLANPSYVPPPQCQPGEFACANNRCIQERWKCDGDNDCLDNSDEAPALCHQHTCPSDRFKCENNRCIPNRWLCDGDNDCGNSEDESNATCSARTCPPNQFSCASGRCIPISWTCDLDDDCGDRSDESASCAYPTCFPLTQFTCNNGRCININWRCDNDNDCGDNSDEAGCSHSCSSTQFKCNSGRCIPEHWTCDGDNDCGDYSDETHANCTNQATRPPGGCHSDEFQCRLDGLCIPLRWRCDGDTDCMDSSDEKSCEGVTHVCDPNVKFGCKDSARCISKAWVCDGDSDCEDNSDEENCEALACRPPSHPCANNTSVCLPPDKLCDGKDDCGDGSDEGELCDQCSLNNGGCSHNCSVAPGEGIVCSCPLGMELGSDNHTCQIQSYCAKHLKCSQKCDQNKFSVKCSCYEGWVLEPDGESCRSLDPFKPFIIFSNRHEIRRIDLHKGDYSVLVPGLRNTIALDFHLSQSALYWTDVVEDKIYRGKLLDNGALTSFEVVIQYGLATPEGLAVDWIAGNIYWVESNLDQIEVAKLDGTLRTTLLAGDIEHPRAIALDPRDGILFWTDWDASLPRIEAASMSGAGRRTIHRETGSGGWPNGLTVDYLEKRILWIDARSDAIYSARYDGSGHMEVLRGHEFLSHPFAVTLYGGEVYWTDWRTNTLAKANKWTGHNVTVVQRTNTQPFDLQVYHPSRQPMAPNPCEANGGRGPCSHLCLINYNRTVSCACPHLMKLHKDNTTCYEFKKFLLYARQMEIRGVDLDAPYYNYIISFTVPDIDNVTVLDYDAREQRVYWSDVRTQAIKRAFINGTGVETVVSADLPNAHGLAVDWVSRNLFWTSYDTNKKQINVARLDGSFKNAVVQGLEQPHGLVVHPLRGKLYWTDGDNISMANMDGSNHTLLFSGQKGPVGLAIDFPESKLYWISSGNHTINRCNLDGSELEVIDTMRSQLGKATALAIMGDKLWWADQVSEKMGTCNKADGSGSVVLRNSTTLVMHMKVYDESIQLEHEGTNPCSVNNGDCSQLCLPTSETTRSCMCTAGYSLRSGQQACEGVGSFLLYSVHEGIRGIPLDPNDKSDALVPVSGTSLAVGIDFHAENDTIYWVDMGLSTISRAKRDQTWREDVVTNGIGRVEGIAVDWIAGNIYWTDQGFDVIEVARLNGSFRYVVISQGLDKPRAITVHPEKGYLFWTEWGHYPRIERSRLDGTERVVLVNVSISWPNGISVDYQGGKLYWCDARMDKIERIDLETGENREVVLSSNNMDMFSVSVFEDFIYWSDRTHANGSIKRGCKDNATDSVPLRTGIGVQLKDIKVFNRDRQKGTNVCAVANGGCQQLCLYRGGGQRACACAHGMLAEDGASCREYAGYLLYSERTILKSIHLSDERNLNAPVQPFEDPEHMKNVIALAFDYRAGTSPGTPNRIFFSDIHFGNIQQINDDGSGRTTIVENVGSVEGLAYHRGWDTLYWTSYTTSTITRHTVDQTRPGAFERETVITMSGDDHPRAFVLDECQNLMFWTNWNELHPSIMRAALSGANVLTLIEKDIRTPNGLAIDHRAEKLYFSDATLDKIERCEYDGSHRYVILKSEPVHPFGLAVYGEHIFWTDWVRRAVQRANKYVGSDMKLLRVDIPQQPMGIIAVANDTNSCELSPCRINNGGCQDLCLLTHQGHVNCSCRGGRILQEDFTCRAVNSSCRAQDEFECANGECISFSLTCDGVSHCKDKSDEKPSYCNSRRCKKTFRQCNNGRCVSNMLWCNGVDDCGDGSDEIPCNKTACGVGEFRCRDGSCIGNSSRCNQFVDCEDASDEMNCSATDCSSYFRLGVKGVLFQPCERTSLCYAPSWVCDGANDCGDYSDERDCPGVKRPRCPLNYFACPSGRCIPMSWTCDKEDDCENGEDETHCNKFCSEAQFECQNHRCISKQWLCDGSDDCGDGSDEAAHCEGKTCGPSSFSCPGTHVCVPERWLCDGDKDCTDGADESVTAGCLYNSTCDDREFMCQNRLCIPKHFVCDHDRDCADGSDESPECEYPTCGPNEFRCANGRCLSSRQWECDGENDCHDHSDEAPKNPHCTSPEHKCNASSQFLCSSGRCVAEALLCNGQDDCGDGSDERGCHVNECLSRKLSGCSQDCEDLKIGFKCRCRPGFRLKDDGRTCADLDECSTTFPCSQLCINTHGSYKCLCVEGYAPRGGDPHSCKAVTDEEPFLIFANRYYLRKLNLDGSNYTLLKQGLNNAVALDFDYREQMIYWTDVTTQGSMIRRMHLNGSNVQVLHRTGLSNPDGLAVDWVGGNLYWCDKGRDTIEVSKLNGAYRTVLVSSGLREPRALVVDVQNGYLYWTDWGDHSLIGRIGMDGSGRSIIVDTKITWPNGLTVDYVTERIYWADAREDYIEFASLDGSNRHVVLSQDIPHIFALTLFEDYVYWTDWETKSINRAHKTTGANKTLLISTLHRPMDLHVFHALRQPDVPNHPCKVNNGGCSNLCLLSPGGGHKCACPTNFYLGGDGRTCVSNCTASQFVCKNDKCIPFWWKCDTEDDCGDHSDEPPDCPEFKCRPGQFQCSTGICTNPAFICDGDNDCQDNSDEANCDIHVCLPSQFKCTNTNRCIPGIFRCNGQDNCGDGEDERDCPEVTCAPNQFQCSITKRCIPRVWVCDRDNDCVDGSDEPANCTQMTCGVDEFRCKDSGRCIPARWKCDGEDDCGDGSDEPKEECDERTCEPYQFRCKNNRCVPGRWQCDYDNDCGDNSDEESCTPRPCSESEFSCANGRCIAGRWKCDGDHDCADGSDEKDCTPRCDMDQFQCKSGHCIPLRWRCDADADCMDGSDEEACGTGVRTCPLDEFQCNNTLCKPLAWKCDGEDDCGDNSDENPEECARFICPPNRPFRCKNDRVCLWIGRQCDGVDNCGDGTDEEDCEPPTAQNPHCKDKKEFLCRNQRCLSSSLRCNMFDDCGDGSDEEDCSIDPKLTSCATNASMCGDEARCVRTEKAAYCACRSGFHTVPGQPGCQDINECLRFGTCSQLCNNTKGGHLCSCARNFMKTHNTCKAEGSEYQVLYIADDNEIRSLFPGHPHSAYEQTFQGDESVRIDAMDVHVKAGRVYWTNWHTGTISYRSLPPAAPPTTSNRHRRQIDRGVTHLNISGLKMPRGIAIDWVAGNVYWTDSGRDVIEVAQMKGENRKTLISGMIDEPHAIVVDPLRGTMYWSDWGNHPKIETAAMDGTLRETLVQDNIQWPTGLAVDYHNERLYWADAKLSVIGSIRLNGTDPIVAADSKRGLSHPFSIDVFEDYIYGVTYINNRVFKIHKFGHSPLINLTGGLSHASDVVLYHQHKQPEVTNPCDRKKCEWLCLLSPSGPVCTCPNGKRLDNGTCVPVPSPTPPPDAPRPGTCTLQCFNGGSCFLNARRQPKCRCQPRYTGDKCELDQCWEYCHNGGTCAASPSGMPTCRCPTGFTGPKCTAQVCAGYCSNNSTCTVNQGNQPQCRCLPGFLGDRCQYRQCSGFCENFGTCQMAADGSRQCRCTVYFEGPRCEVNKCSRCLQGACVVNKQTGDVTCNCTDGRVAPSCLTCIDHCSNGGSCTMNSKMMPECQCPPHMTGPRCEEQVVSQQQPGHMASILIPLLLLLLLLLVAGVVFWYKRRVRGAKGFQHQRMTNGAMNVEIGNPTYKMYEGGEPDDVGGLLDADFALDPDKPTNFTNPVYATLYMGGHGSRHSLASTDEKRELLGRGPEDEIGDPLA

In patent publication US7741283B2, “Compositions and methods for inhibiting cell proliferation” (St. Louis University, priority 2003, dated 2010):

Molecular target: T1, LRP-1 (Mus musculus, UniProt Q91ZX7)
T1 construct: endogenous in cells; host or cells: MEF (mouse embryonic fibroblasts)
Test: 125I-α2M* binding to MEF cells at pH 7.4
Conditions: read-out: IC50, inhibition of ^125I-α2M* binding to LRP-1

IC50: 25 to 30 µM
SMILES: OCCN1CCN(CCCN2c3ccccc3Sc3ccc(C(F)(F)F)cc32)CC1 [fluphenazine]
